The list shows a part of the results. These are further read-outs of the screen, such as a control signal, another cell line or another target. No call is given for them. Most of these compounds were active or inconclusive in the main read-out, so they are no random draw. Potencies come from curve fits of mixed quality, noted in brackets.
Assay: qHTS Assay for Lipid Storage Modulators in Drosophila S3 Cells;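 as to cell number change: cells counted by Cell Tracker Red CMTPX staining in the red channel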
Details: BODIPY lipid droplet fluorescence, 18-24 h; for cell number change: measured here: cell count max response, cells fed with added oleic acid
Outline: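 Laser-scanning cytometry quantifies lipid droplet accumulation (500–530 nm total intensity; droplet/cell object ratio) in oleic acid-fed (400 uM added) Drosophila S3 cells treated with a concentration series. 20 uM Triacsin C defined 100% inhibition.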

[1] = measured here: lipid fluorescence (Fed channel) AC50, cells fed with added oleic acid
[2] = measured here: cell number channel AC50, cells fed with added oleic acid

Row | Compound | cell number change | AC50 [1] | AC50 [2]
1 | COc1ccc([N+](=O)[O-])cc1NCC(=O)Nc1cccc(S(=O)(=O)N2CCCC2)c1 | -6.02% |  | 
2 | CCOC(=O)c1ccc(NC(=O)Cn2c(C)nc3c(sc(=S)n3CC)c2=O)cc1 | 16.2% |  | 
3 | CCOC(=O)[C@H]1[C@H]2COc3ccc(Cl)cc3[C@@H]2N2C(=O)c3ccc(C)cc3NC(=O)[C@@]12C | 9.17% | 14.6 µM [rising, partial curve, poor fit] | 
4 | CCOc1ccc(-c2c(C(=O)N/N=C/c3cccs3)nnn2-c2nonc2N)cc1 |  | 29.1 µM [rising, single point] | 
5 | O=C(CSc1nnc(-c2cccnc2)o1)OC1CCCCC1 | -194% | 29.1 µM [falling, single point] | 29.1 µM [falling, single point]
6 | COc1ccc(N2C(=O)c3ccc(C(=O)Nc4ccccc4OC)cc3C2=O)cc1 | -13.8% |  | 
7 | O=C(O)c1cccc(NS(=O)(=O)c2ccc3nnn(O)c3c2)c1 | -30% | 2.91 µM [falling, full curve] | 3.26 µM [falling, full curve]
8 | O=C(N/N=C/c1cc(Br)c(O)c(Br)c1)C1CC1 | -5.13% | 29.1 µM [falling, single point] | 
9 | CN(Cc1nc2ccccc2s1)C(=O)c1ccc(F)cc1 | 32.1% | 1.16 µM [rising, single point] | 0.13 µM [rising, full curve]
10 | CCN(C(=O)COC(=O)c1sccc1C)c1c(N)n(Cc2ccccc2)c(=O)[nH]c1=O | -41% |  | 29.1 µM [falling, partial curve, poor fit]
11 | Cc1ccccc1C[n+]1cccc2ccccc21 | 2.3% | 1.84 µM [rising, partial curve] | 
12 | Cc1cc(/C=N/NC(=O)C(=O)NCc2ccccn2)c(C)n1-c1cccc(Br)c1 | -9.02% | 6.51 µM [rising, single point] | 0.82 µM [falling, single point]
13 | Cc1ccc(Cl)c(OC(=O)Cn2cnc3c2c(=O)n(C)c(=O)n3C)c1 | 28% | 2.06 µM [rising, partial curve, poor fit] | 
14 | Cc1ccc(NC(=S)/C(=C(\[O-])c2ccc(F)cc2)[n+]2ccccc2)cc1 |  | 0.082 µM [rising, partial curve, poor fit] | 
15 | NC(=S)NNC(=O)C12CC3CC(CC(C3)C1)C2 |  | 29.1 µM [rising, single point] | 
16 | COc1ccc(C(=O)c2ccc(OC)c(Br)c2)cc1Br | -24.4% | 0.461 µM [falling, full curve, poor fit] | 4.61 µM [falling, full curve, poor fit]
17 | CC(C)CN1CCC(=O)N(CCSc2ccccc2)CC1 | -9.88% |  | 
18 | CCCCN1C(=O)CC(Sc2ncccc2C(=O)O)C1=O (stereo unspecified) | -45.2% |  | 16.4 µM [falling, single point]
19 | Cc1ccc(S(=O)(=O)CC(=O)NC(C)c2ccccc2)cc1 (stereo unspecified) |  | 2.06 µM [rising, partial curve] | 
20 | Cc1ccc(NC(=O)c2ccc(C#CC3(O)CCCCC3)cc2)cc1C | 42.2% | 1.64 µM [falling, partial curve] | 
21 | Cc1cc(C)c(NC(=O)CS(=O)CC(=O)Nc2ccc(N3CCOCC3)cc2)c(C)c1 (stereo unspecified) | 1.21% | 0.731 µM [rising, single point] | 

Row | Compound | cell number change | AC50 [1] | AC50 [2]
22 | CCNS(=O)(=O)c1cc(Br)ccc1OC | -171% |  | 29.1 µM [falling, single point]
23 | CCN(CC)CCNC(=S)Nc1ccc2nc(N3CCN(CC)CC3)cc(C)c2c1 | 59.5% |  | 
24 | Cc1ccc(NC(=O)CSc2ncccc2C(=O)Oc2cccc([N+](=O)[O-])c2)cc1Cl | -21.3% |  | 0.00461 µM [falling, full curve, poor fit]
25 | CC1(C)CC(CC(=O)O)C(=O)O1 (stereo unspecified) | 17.6% | 14.6 µM [falling, partial curve, poor fit] | 
26 | Cc1ccc(OCC(=O)N(Cc2nnc(-c3ccccc3Cl)o2)C2CC2)cc1C | -4.28% | 0.326 µM [rising, full curve] | 
27 | CCOC(=O)c1c(C)c(-c2ccccc2)n(CC(=O)N2CCCC2)c1C | -13.5% | 23.1 µM [falling, partial curve] | 0.731 µM [falling, single point]
28 | COc1ccccc1-c1c(C)nn2c(N)c(-c3ccccc3)cnc12 | 30.3% |  | 29.1 µM [rising, single point]
29 | O=C(CN1C(=O)/C(=C/c2ccco2)SC1=S)Nc1ccc(O)c(C(=O)O)c1 | -36.3% |  | 32.6 µM [falling, single point]
30 | CSc1ncccc1C(=O)OCC(=O)N1CCOCC1 | -12.1% | 29.1 µM [falling, single point] | 
31 | COc1cccc(CNC(=O)Cc2ccc(S(=O)(=O)N3CCOCC3)s2)c1 |  |  | 0.731 µM [rising, single point]
32 | COc1ccc(-n2c(COc3cccc4ccccc34)nnc2SCC#N)cc1 | -43.8% | 29.1 µM [falling, single point] | 23.1 µM [falling, single point]
33 | O=C(COc1ccccc1Cl)NNC(=O)c1ccc2nc[nH]c2c1 | -10.8% |  | 
34 | O=C(Cn1nnc(-c2ccccc2)n1)N=Nc1c(O)[nH]c2ccccc12 |  | 2.31 µM [rising, partial curve, poor fit] | 
35 | O=[N+]([O-])c1cccc(Nc2c([N+](=O)[O-])ccc3nonc23)c1 |  | 20.6 µM [falling, single point] | 
36 | COC(=O)CSc1ccccc1C(=O)OC | -25.4% |  | 
37 | COc1ccc(C2=NOC(C(=O)Nc3c(C)n(C)n(-c4ccccc4)c3=O)C2)cc1OC (stereo unspecified) | 3.41% | 2.31 µM [rising, single point] | 
38 | CC(=O)c1cnc(-c2ccccc2)s1 | -7.73% |  | 
39 | O=C(O)c1ccc(-c2nnc(-c3ccc([N+](=O)[O-])cc3)o2)cc1 | -16.8% |  | 
40 | CCC(=O)Nc1sc(C(=O)N2CCCCC2)c(C)c1C#N | 15.4% | 4.61 µM [rising, partial curve, poor fit] | 
41 | CN(c1ccc(C(=O)N2CCCCCC2)cc1)S(=O)(=O)c1ccccc1 |  | 5.8 µM [falling, partial curve] | 
42 | CC(C)=CC(=O)OCC(=O)NC(=O)NC(C)(C)C | -135% | 25.9 µM [falling, partial curve] | 29.1 µM [falling, partial curve]

Row | Compound | cell number change | AC50 [1] | AC50 [2]
43 | O=C(NCC1CCCO1)c1ccccc1S(=O)(=O)c1ccc([N+](=O)[O-])cc1 (stereo unspecified) | -8.47% | 0.651 µM [falling, partial curve, poor fit] | 
44 | Cc1ccc(C(=O)NCCn2c(N)c(C#N)c3nc4ccccc4nc32)cc1 | -16.7% | 0.82 µM [rising, partial curve] | 
45 | COc1ccc2[nH]c(C(=O)NCCN3CCCCC3)cc2c1 | -13.2% | 6.51 µM [falling, single point] | 
46 | COc1ccccc1CCNC(=O)c1ccc2nc[nH]c2c1 | 0.758% | 4.61 µM [falling, single point] | 
47 | COc1ccc(S(=O)(=O)N(C)c2ccc(C(=O)N3CCC(C(N)=O)CC3)cc2)cc1OC | -52.8% |  | 
48 | COc1ccc(OC)c(CNC(=O)CCS(=O)(=O)c2ccc3c(c2)oc(=O)n3C)c1 | 9.43% |  | 
49 | COc1cccc(NC(=O)CN(C)C(=O)c2ccc(COc3ccccc3)cc2)c1 | 3.25% | 6.51 µM [rising, single point] | 
50 | Cc1onc(-c2ccccc2)c1C(=O)N/N=C/c1cc(Br)c(O)c(Br)c1 | -4.14% | 7.31 µM [rising, partial curve] | 
51 | CCCCC(=O)Nc1ccc2c(c1)nc(CCN1CCN(C)CC1)n2C | 11.3% | 6.51 µM [rising, single point] | 
52 | CCCN(CC(=O)Nc1ccccc1OC)C(=O)CSc1nc(C)cc(C)n1 |  | 6.51 µM [falling, single point] | 
53 | Fc1ccc(NC(=S)N2CCOCC2)c(F)c1 |  | 0.398 µM [rising, full curve, poor fit] | 
54 | Cc1cccc(C(=O)OC(C)CN2CCCC2)c1 (stereo unspecified) | -13.5% | 29.1 µM [falling, single point] | 
55 | CN(C)c1nnnn1Cc1ccc(Cl)cc1Cl | -39.9% | 14.6 µM [falling, partial curve] | 0.0731 µM [falling, partial curve, poor fit]
56 | CCOC(=O)NNC(=O)c1ccc(Cl)cc1 | 8.13% |  | 
57 | CCOc1ccc(NC(=O)CN(C)C(=O)c2cc(C)nc3ccccc23)cc1OCC | -26.3% | 0.146 µM [falling, full curve, poor fit] | 
58 | Cc1cccc(NC(=O)NNC(=O)c2c(Cl)c(C)nn2C)c1 |  | 0.116 µM [falling, partial curve, poor fit] | 
59 | COc1ccc(OC)c(/C=N/NC(=O)c2cc3c(OC)cccc3[nH]2)c1 | 11.7% | 1.46 µM [rising, partial curve] | 1.46 µM [rising, partial curve]
60 | O=C(CSc1nnc(CCCN2C(=O)c3cccc4cccc(c34)C2=O)n1-c1ccccc1)N1CCN(CCO)CC1 | 24.8% | 29.1 µM [rising, single point] | 
61 | Cc1ccc(C(=O)Nc2ccc(NC(=O)c3ccco3)c(C)c2)cc1 | 5.04% | 29.1 µM [falling, single point] | 
62 | CC(/C=N/NC(=O)c1ccccc1F)=C\c1ccccc1 | -42.6% |  | 16.4 µM [falling, single point]

Given as tab-separated lines: three of the compounds above.
Row	Compound	cell number change	AC50 [1]	AC50 [2]
52	CCCN(CC(=O)Nc1ccccc1OC)C(=O)CSc1nc(C)cc(C)n1		6.51 µM [falling, single point]	
53	Fc1ccc(NC(=S)N2CCOCC2)c(F)c1		0.398 µM [rising, full curve, poor fit]	
54	Cc1cccc(C(=O)OC(C)CN2CCCC2)c1 (stereo unspecified)	-13.5%	29.1 µM [falling, single point]	

Source: PubChem BioAssay AID2685 (National Center for Advancing Translational Sciences (NCATS), 2010)
